According to PubChem BioAssay AID248 (DTP/NCI, 2004):
The list does not hold the whole screen: it gathers some chemical classes. Other doses and runs of a compound may be missing. T/C gives the treated animals as a percentage of the vehicle group. Some doses have a count of surviving animals in place of a T/C: the source files T/C as zero there, which appears to mark a toxic dose or a test without result, not a measured value. Some doses without a T/C left all or most animals alive at the check, yet need not have been tolerated: the source hardly ever lists a survival T/C far under the control, and the zero likely stands for such cases as well. Counts of survivors are from the toxicity check (mostly the fifth day) where no day follows; animals may have died later. Schedule codes are those of the source, read here as Q, the interval in days (D) or hours (H), X, the number of doses. Some doses were run more than once; their values stand side by side, smallest first. Marks such as (2×) say how often a value occurs here. Where survival is the endpoint, this PubChem deposit counts one and a half times the control or more as active, and values a quarter to a half above the control carry no call in these data; other NCI protocols may use other cut-offs. Some T/C values are followed by the survivors on the day toxicity was checked, most often the fifth; where neither a count nor a note follows, no animal had died by that day.

Tested on: L1210 leukemia ip in BDF1 mice, survival T/C
Test: NCI In Vivo Anticancer Drug Screen. Data for tumor model L1210 Leukemia (intraperitoneal) in B6D2F1 (BDF1) mice
Details: higher T/C = longer survival

For `NC(=O)c1[nH]cnc1/N=N\N(CCCl)CCCl`, the T/C (T/C endpoint: mean survival time, dose: 1920.0 mg/kg/injection, schedule: Q01DX001 (ip), vehicle: saline) was 90 % of control, the T/C (T/C endpoint: mean survival time, dose: 1920.0 mg/kg/injection, schedule: Q01DX001 (ip), vehicle: steroid suspending solution) was 410 % of control and the survivor count (T/C endpoint: mean survival time, dose: 1920.0 mg/kg/injection, schedule: Q01DX001 (oral), vehicle: steroid suspending solution) was 5 of 8. The T/C (T/C endpoint: mean survival time, dose: 2400.0 mg/kg/injection, schedule: Q01DX001 (oral), vehicle: carboxymethylcellulose (CMC)) was 152 % of control, the T/C (T/C endpoint: mean survival time, dose: 2400.0 mg/kg/injection, schedule: Q08DX003 (oral), vehicle: steroid suspending solution) was 97 % of control [7 of 8 alive] and the T/C (T/C endpoint: mean survival time, dose: 3200.0 mg/kg/injection, schedule: Q01DX001 (oral), vehicle: carboxymethylcellulose (CMC)) was 488 % of control. For the same compound, the survivor count (T/C endpoint: mean survival time, dose: 3200.0 mg/kg/injection, schedule: Q01DX001 (oral), vehicle: steroid suspending solution) was 6 of 8, the T/C (T/C endpoint: median survival time, dose: 25.0 mg/kg/injection, schedule: Q01DX009 (ip), vehicle: Klucel (hydroxypropylcellulose) (HPC)) was 172 % of control and the T/C (T/C endpoint: median survival time, dose: 50.0 mg/kg/injection, schedule: Q01DX009 (ip), vehicle: Klucel (hydroxypropylcellulose) (HPC)) was 205 % of control. The T/C (T/C endpoint: median survival time, dose: 100.0 mg/kg/injection, schedule: Q01DX001 (ip), vehicle: Klucel (hydroxypropylcellulose) (HPC), evaluated on day 27) was 138 % of control, the T/C (T/C endpoint: median survival time, dose: 100.0 mg/kg/injection, schedule: Q01DX001 (ip), vehicle: Klucel (hydroxypropylcellulose) (HPC), evaluated on day 30) was 166 % of control and the T/C (T/C endpoint: median survival time, dose: 100.0 mg/kg/injection, schedule: Q01DX001 (ip), vehicle: Klucel (hydroxypropylcellulose) (HPC), evaluated on day 38) was 124 % of control. For the same compound, the T/C (T/C endpoint: median survival time, dose: 100.0 mg/kg/injection, schedule: Q01DX001 (ip), vehicle: Klucel (hydroxypropylcellulose) (HPC), evaluated on day 40) was 155 % of control, the T/C (T/C endpoint: median survival time, dose: 100.0 mg/kg/injection, schedule: Q01DX001 (ip), vehicle: steroid suspending solution, evaluated on day 30) was 133 % of control and the T/C (T/C endpoint: median survival time, dose: 100.0 mg/kg/injection, schedule: Q01DX001 (ip), vehicle: steroid suspending solution, evaluated on day 40) was 127 and 133 % of control. The T/C (T/C endpoint: median survival time, dose: 100.0 mg/kg/injection, schedule: Q01DX001 (ip), vehicle: steroid suspending solution, evaluated on day 45) was 161 % of control, the T/C (T/C endpoint: median survival time, dose: 100.0 mg/kg/injection, schedule: Q01DX001 (ip), vehicle: steroid suspending solution, evaluated on day 50) was 144 and 155 % of control and the T/C (T/C endpoint: median survival time, dose: 100.0 mg/kg/injection, schedule: Q01DX001 (ip), vehicle: steroid suspending solution, evaluated on day 54) was 181 and 194 % of control. The T/C (T/C endpoint: median survival time, dose: 100.0 mg/kg/injection, schedule: Q01DX009 (ip), vehicle: Klucel (hydroxypropylcellulose) (HPC)) was 233 % of control, the T/C (T/C endpoint: median survival time, dose: 108.0 mg/kg/injection, schedule: Q01DX001 (ip), vehicle: Klucel (hydroxypropylcellulose) (HPC)) was 145 % of control and the T/C (T/C endpoint: median survival time, dose: 180.0 mg/kg/injection, schedule: Q01DX001 (ip), vehicle: Klucel (hydroxypropylcellulose) (HPC), evaluated on day 7) was 252 % of control. For the same compound, the T/C (T/C endpoint: median survival time, dose: 180.0 mg/kg/injection, schedule: Q01DX001 (ip), vehicle: Klucel (hydroxypropylcellulose) (HPC), evaluated on day 50) was 240 % of control, the T/C (T/C endpoint: median survival time, dose: 200.0 mg/kg/injection, schedule: Q01DX001 (ip), vehicle: Klucel (hydroxypropylcellulose) (HPC), evaluated on day 27) was 150 % of control and the T/C (T/C endpoint: median survival time, dose: 200.0 mg/kg/injection, schedule: Q01DX001 (ip), vehicle: Klucel (hydroxypropylcellulose) (HPC), evaluated on day 30) was 177 % of control. The T/C (T/C endpoint: median survival time, dose: 200.0 mg/kg/injection, schedule: Q01DX001 (ip), vehicle: Klucel (hydroxypropylcellulose) (HPC), evaluated on day 38) was 124 % of control, the T/C (T/C endpoint: median survival time, dose: 200.0 mg/kg/injection, schedule: Q01DX001 (ip), vehicle: Klucel (hydroxypropylcellulose) (HPC), evaluated on day 40) was 188 % of control and the T/C (T/C endpoint: median survival time, dose: 200.0 mg/kg/injection, schedule: Q01DX001 (ip), vehicle: steroid suspending solution, evaluated on day 30) was 161 % of control. For the same compound, the T/C (T/C endpoint: median survival time, dose: 200.0 mg/kg/injection, schedule: Q01DX001 (ip), vehicle: steroid suspending solution, evaluated on day 40) was 150 and 155 % of control, the T/C (T/C endpoint: median survival time, dose: 200.0 mg/kg/injection, schedule: Q01DX001 (ip), vehicle: steroid suspending solution, evaluated on day 45) was 177 % of control and the T/C (T/C endpoint: median survival time, dose: 200.0 mg/kg/injection, schedule: Q01DX001 (ip), vehicle: steroid suspending solution, evaluated on day 50) was 177 and 555 % of control. The T/C (T/C endpoint: median survival time, dose: 200.0 mg/kg/injection, schedule: Q01DX001 (ip), vehicle: steroid suspending solution, evaluated on day 54) was 222 and 675 % of control, the T/C (T/C endpoint: median survival time, dose: 200.0 mg/kg/injection, schedule: Q01DX001 (ip), vehicle: steroid suspending solution, evaluated on day 60) was 250 % of control and the T/C (T/C endpoint: median survival time, dose: 200.0 mg/kg/injection, schedule: Q01DX001 (ip), vehicle: steroid suspending solution, evaluated on day 69) was 505 % of control. The T/C (T/C endpoint: median survival time, dose: 200.0 mg/kg/injection, schedule: Q01DX009 (ip), vehicle: Klucel (hydroxypropylcellulose) (HPC)) was 200 % of control, the T/C (T/C endpoint: median survival time, dose: 300.0 mg/kg/injection, schedule: Q01DX001 (ip), vehicle: Klucel (hydroxypropylcellulose) (HPC), evaluated on day 7) was 343 % of control and the T/C (T/C endpoint: median survival time, dose: 300.0 mg/kg/injection, schedule: Q01DX001 (ip), vehicle: Klucel (hydroxypropylcellulose) (HPC), evaluated on day 30) was 300 % of control. For the same compound, the T/C (T/C endpoint: median survival time, dose: 300.0 mg/kg/injection, schedule: Q01DX001 (ip), vehicle: Klucel (hydroxypropylcellulose) (HPC), evaluated on day 50) was 315 % of control, the T/C (T/C endpoint: median survival time, dose: 400.0 mg/kg/injection, schedule: Q01DX001 (ip), vehicle: Klucel (hydroxypropylcellulose) (HPC), evaluated on day 27) was 200 % of control and the T/C (T/C endpoint: median survival time, dose: 400.0 mg/kg/injection, schedule: Q01DX001 (ip), vehicle: Klucel (hydroxypropylcellulose) (HPC), evaluated on day 30) was 111 % of control. The T/C (T/C endpoint: median survival time, dose: 400.0 mg/kg/injection, schedule: Q01DX001 (ip), vehicle: Klucel (hydroxypropylcellulose) (HPC), evaluated on day 38) was 142 % of control, the T/C (T/C endpoint: median survival time, dose: 400.0 mg/kg/injection, schedule: Q01DX001 (ip), vehicle: Klucel (hydroxypropylcellulose) (HPC), evaluated on day 40) was 444 % of control and the T/C (T/C endpoint: median survival time, dose: 400.0 mg/kg/injection, schedule: Q01DX001 (ip), vehicle: steroid suspending solution, evaluated on day 30) was 333 % of control. For the same compound, the T/C (T/C endpoint: median survival time, dose: 400.0 mg/kg/injection, schedule: Q01DX001 (ip), vehicle: steroid suspending solution, evaluated on day 40) was 161 and 227 % of control, the T/C (T/C endpoint: median survival time, dose: 400.0 mg/kg/injection, schedule: Q01DX001 (ip), vehicle: steroid suspending solution, evaluated on day 45) was 172 % of control and the T/C (T/C endpoint: median survival time, dose: 400.0 mg/kg/injection, schedule: Q01DX001 (ip), vehicle: steroid suspending solution, evaluated on day 50) was 555 % of control (2×). For the same compound, the T/C (T/C endpoint: median survival time, dose: 400.0 mg/kg/injection, schedule: Q01DX001 (ip), vehicle: steroid suspending solution, evaluated on day 54) was 383 and 675 % of control, the T/C (T/C endpoint: median survival time, dose: 400.0 mg/kg/injection, schedule: Q01DX001 (ip), vehicle: steroid suspending solution, evaluated on day 60) was 488 % of control and the T/C (T/C endpoint: median survival time, dose: 400.0 mg/kg/injection, schedule: Q01DX001 (ip), vehicle: steroid suspending solution, evaluated on day 69) was 766 % of control. The T/C (T/C endpoint: median survival time, dose: 500.0 mg/kg/injection, schedule: Q01DX001 (ip), vehicle: Klucel (hydroxypropylcellulose) (HPC), evaluated on day 7) was 255 % of control, the T/C (T/C endpoint: median survival time, dose: 500.0 mg/kg/injection, schedule: Q01DX001 (ip), vehicle: Klucel (hydroxypropylcellulose) (HPC), evaluated on day 30) was 180 % of control and the T/C (T/C endpoint: median survival time, dose: 500.0 mg/kg/injection, schedule: Q01DX001 (ip), vehicle: Klucel (hydroxypropylcellulose) (HPC), evaluated on day 50) was 250 % of control. The T/C (T/C endpoint: median survival time, dose: 800.0 mg/kg/injection, schedule: Q01DX001 (ip), vehicle: Klucel (hydroxypropylcellulose) (HPC), evaluated on day 27) was 177 % of control, the T/C (T/C endpoint: median survival time, dose: 800.0 mg/kg/injection, schedule: Q01DX001 (ip), vehicle: Klucel (hydroxypropylcellulose) (HPC), evaluated on day 30) was 88 % of control and the T/C (T/C endpoint: median survival time, dose: 800.0 mg/kg/injection, schedule: Q01DX001 (ip), vehicle: Klucel (hydroxypropylcellulose) (HPC), evaluated on day 38) was 136 % of control. For the same compound, the T/C (T/C endpoint: median survival time, dose: 800.0 mg/kg/injection, schedule: Q01DX001 (ip), vehicle: Klucel (hydroxypropylcellulose) (HPC), evaluated on day 40) was 116 % of control [7 of 8 alive], the T/C (T/C endpoint: median survival time, dose: 800.0 mg/kg/injection, schedule: Q01DX001 (ip), vehicle: steroid suspending solution, evaluated on day 30) was 238 % of control and the T/C (T/C endpoint: median survival time, dose: 800.0 mg/kg/injection, schedule: Q01DX001 (ip), vehicle: steroid suspending solution, evaluated on day 40) was 161 and 333 % of control. For the same compound, the T/C (T/C endpoint: median survival time, dose: 800.0 mg/kg/injection, schedule: Q01DX001 (ip), vehicle: steroid suspending solution, evaluated on day 50) was 266 % of control, the T/C (T/C endpoint: median survival time, dose: 800.0 mg/kg/injection, schedule: Q01DX001 (ip), vehicle: steroid suspending solution, evaluated on day 54) was 127 and 675 % of control and the survivor count (T/C endpoint: median survival time, dose: 800.0 mg/kg/injection, schedule: Q01DX001 (ip), vehicle: steroid suspending solution) was 7 of 8 and 8 of 8 (3×). For the same compound, the T/C (T/C endpoint: median survival time, dose: 833.0 mg/kg/injection, schedule: Q01DX001 (ip), vehicle: Klucel (hydroxypropylcellulose) (HPC), evaluated on day 7) was 222 % of control, the T/C (T/C endpoint: median survival time, dose: 833.0 mg/kg/injection, schedule: Q01DX001 (ip), vehicle: Klucel (hydroxypropylcellulose) (HPC), evaluated on day 50) was 215 % of control and the survivor count (T/C endpoint: median survival time, dose: 833.0 mg/kg/injection, schedule: Q01DX001 (ip), vehicle: Klucel (hydroxypropylcellulose) (HPC)) was 7 of 8.
